These are yes or no findings as the source states them, for the method shown. For some assays here: In cells and extracts the contact can be indirect. Some entries that bind do so weakly or less than the wild type. Sequences can lack the tags named with a protein.
Legend:
[1] = biological target: recombinant human MAT II α2 subunit expressed in E. coli from the pQE-30 vector (human) (UniProt P31153); assay: MAT kinetic assay
[2] = biological target: T1, endogenous E. coli MAT α subunit (E. coli) (UniProt P0A817); assay: co-purification / MAT kinetic assay
T1 sequence: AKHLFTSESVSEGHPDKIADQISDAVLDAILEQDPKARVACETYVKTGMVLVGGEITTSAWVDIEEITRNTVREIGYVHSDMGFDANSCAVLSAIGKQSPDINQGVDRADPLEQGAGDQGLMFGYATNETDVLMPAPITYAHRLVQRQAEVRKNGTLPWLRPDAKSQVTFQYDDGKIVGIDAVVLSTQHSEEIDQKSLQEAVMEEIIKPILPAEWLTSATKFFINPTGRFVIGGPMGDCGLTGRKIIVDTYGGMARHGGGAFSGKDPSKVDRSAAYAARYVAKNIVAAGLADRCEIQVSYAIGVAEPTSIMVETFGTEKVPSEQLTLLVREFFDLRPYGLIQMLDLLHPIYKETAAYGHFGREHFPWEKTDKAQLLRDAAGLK

By UniProt entry, the sequences of proteins in these tests, tags left out.
UniProt P31153: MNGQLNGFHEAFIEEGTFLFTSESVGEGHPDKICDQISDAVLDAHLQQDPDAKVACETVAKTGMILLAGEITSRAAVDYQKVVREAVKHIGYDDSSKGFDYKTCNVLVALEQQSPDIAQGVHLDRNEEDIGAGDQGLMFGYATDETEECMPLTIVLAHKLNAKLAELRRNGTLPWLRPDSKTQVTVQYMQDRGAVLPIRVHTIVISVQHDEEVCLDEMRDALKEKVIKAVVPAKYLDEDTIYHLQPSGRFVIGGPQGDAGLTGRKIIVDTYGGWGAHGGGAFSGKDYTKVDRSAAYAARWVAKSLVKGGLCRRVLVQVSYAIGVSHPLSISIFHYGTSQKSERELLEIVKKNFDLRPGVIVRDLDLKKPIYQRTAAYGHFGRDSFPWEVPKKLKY

[3] = biological target: T1, endogenous E. coli MAT α subunit (E. coli); assay: Ni-agarose co-purification, Western blot
[4] = biological target: T1, endogenous E. coli MAT α subunit (E. coli); assay: Ni-NTA agarose co-purification, Western blot
[5] = biological target: T1, endogenous E. coli MAT α subunit (E. coli); assay: Ni-NTA agarose purification under native conditions

Measured: binding

B1: recombinant human MAT II β subunit protein with N-terminal poly-His tag, expressed in E. coli from pQE-30 (Clone 5) (protein, not shown: small tags and cut ends)
chain: MVGREKEISIHFVPGSCRLVEEEVNIPNRRVLVTGATGLLGRAVHKEFQQNNWHAVGCGFRRARPKFEQVNLLDSNAVHHIIHDFQPHVIVHCAAERRPDVVENQPDAASQLNVDASGNLAKEAAAVGAFLIYISSDYVFDGTNPPYREEDIPAPLNLYGKTKLDGEKAVLENNLGAAVLRIPILYGEVEKLEESAVTVMFDKVQFSNKSANMDHWQQRFPTHVKDVATVCRQLAEKRMLDPSIKGTFHWSGNEQMTKYEMACAIADAFNLPSSHLRPITDSPVLGAQRPRNAQLDCSKLETLGIGQRTPFRIGIKESLWPFLIDKRWRQTVFH
binds: all assays above

Reference: US20040259198A1, “Purified and isolated mat II beta subunit nucleic acids and polypeptides and therapeutic and screening methods using same” (priority 1999, published 2004)
